{"sequences": {"note": "Sequences of proteins named here, by UniProt entry; tags and fusion partners are left off.", "UniProt Q0JBA9, entry or part of it": "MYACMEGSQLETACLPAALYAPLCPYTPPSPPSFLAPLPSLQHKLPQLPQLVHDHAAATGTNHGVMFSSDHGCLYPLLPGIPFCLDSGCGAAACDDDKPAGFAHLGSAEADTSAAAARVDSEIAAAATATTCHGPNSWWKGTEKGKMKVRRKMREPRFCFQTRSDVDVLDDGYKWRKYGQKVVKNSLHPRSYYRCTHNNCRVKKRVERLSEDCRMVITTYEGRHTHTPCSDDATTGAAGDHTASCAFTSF"}, "source": "paper PMC7819943", "about": "“Rice protein-binding microarrays: a tool to detect cis-acting elements near promoter regions in rice”", "note": "The list shows a part of the results."}
{"target": "OsWRKY34 (Oryza sativa, UniProt Q0JBA9 1-250)", "test": "protein-binding microarray (RPBM); PBS, 2% BSA, 51.3 ng/ul salmon testes DNA, 50 uM zinc acetate, 200 nM TF, 25 C, 1 h; high values mean tight binding", "details": "protein: recombinant; tags: N-terminal polyhistidine and DsRed monomer fusion (pET32a); label: CyDye5-dUTP incorporated in the synthesized complementary strand; 3' TTTTT single-stranded linker to array surface; dsDNA, one strand shown", "outline": "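The binding signal is fluorescence intensity per array feature (arbitrary units). Readings came from an Axon 4000B scanner after a washed, 2% BSA-blocked, double-stranded custom Agilent array had been incubated for 1 h at 25 °C with 200 nM protein and 50 µM zinc acetate. The protein was a Ni–NTA-purified transcription factor fused N-terminally to polyhistidine and DsRed, expressed in E. coli BL21-CodonPlus.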"}
{"sequence": "ACCCAATGACTTTAGGTGGCTGTGTTGTGTTCAGTGGATCCGGAGTCACCTAGTGCAG", "binding signal": "9510 fluorescence intensity (a.u.)"}
{"sequence": "AATTCTTATCTTTGTAACAGTGTTGTTTTTTTTTGGGTAACGGAGTCACCTAGTGCAG", "binding signal": "8380 fluorescence intensity (a.u.)"}
{"sequence": "TCCTAATAAGTACTTCATTCGTTTTATATTATAAGACTTTCGGAGTCACCTAGTGCAG", "binding signal": "9710 fluorescence intensity (a.u.)"}
{"sequence": "TGGCAAAGTATCGTCCATCACATACAGTACACAACGATCCCGGAGTCACCTAGTGCAG", "binding signal": "8110 fluorescence intensity (a.u.)"}
{"sequence": "GCCGCCTTTCGTTACCCACCAACCCAACCTCGTTCTACGGCGGAGTCACCTAGTGCAG", "binding signal": "8980 fluorescence intensity (a.u.)"}
{"sequence": "ACGGGTGCTTGTATTTACAGCTAATTATTTTTTCAGTGGCCGGAGTCACCTAGTGCAG", "binding signal": "8410 fluorescence intensity (a.u.)"}
{"sequence": "ACCTTCACTATTTTTTTTGATTTTTTTCTTTTTTTTTTAACGGAGTCACCTAGTGCAG", "binding signal": "12200 fluorescence intensity (a.u.)"}
{"sequence": "ACTTTGATTGGGCTGGGTTCATATGAGATTAGGGGAAAAACGGAGTCACCTAGTGCAG", "binding signal": "13500 fluorescence intensity (a.u.)"}
{"sequence": "ATTTTGCATGCCCGCTGTGTTCAAACTGACATATTGTCAACGGAGTCACCTAGTGCAG", "binding signal": "10100 fluorescence intensity (a.u.)"}
{"sequence": "GAGCAGCTTCGTCGTCGTCTTCGTTTCATCGCTTCTGCTCCGGAGTCACCTAGTGCAG", "binding signal": "11000 fluorescence intensity (a.u.)"}
{"sequence": "CGTTTCAAAATATTTAACACCGTTGACTTTTTAGTACGTGCGGAGTCACCTAGTGCAG", "binding signal": "31100 fluorescence intensity (a.u.)"}
{"sequence": "CCTTCACCTGGTAATCATTTCGATGCATTCATTTCCCTATCGGAGTCACCTAGTGCAG", "binding signal": "8470 fluorescence intensity (a.u.)"}
{"sequence": "TCACCTCCTCTCTTTCTATCTCTCTCTCTCCACCACCTTTCGGAGTCACCTAGTGCAG", "binding signal": "8340 fluorescence intensity (a.u.)"}
{"sequence": "GCTGGTATGCCTTGCATGCTCTCACGGTTACGTGCCGAGACGGAGTCACCTAGTGCAG", "binding signal": "8570 fluorescence intensity (a.u.)"}
{"sequence": "TAAGACGTTTTGACTTTTTTTTTTCCTATTTAAACCTTTTCGGAGTCACCTAGTGCAG", "binding signal": "13500 fluorescence intensity (a.u.)"}
{"sequence": "AGCATTTTCCGCCCCAAATCTCGTCCTTGCTGCCCCGACTCGGAGTCACCTAGTGCAG", "binding signal": "8650 fluorescence intensity (a.u.)"}
{"sequence": "GTCTAGAATGCATCACTTTGCTTTTGGCCAAGGTCATTTGCGGAGTCACCTAGTGCAG", "binding signal": "8160 fluorescence intensity (a.u.)"}
{"sequence": "CTTCTTCTTGTTGTTCTTGCTGTTCTTGTGGTTCTTGGCCCGGAGTCACCTAGTGCAG", "binding signal": "11500 fluorescence intensity (a.u.)"}
{"sequence": "CAAGTCAACACCAACCAAACCCTAATTGCTTAGAGGACAACGGAGTCACCTAGTGCAG", "binding signal": "8420 fluorescence intensity (a.u.)"}
{"sequence": "CTTCCCCATCTCCGCCGCCACCCCACCGTTTCTCTTCTTTCGGAGTCACCTAGTGCAG", "binding signal": "9790 fluorescence intensity (a.u.)"}
{"sequence": "GTCTCTCTTTTTTGTTATTTTATTTAAAACTAGCTATATCCGGAGTCACCTAGTGCAG", "binding signal": "13300 fluorescence intensity (a.u.)"}
{"sequence": "CTACTTTGCCTACCTAGGCTGCCGCACTATATATAAATACCGGAGTCACCTAGTGCAG", "binding signal": "8700 fluorescence intensity (a.u.)"}
{"sequence": "TTTTTAGGCATTTTTAGGTGTTCTCCCATTTTTAGGTGCGCGGAGTCACCTAGTGCAG", "binding signal": "9210 fluorescence intensity (a.u.)"}
{"sequence": "TCGTTCTACCAGTCAGCCCTAACAAACTTCCCGCCCACTCCGGAGTCACCTAGTGCAG", "binding signal": "8330 fluorescence intensity (a.u.)"}
{"sequence": "GCACTGGGCGTTCCTACTATTCCACTCGCTCTAGTTTGCCCGGAGTCACCTAGTGCAG", "binding signal": "10500 fluorescence intensity (a.u.)"}
{"sequence": "ATTACTTGTCGCTTTGACTTTTTGCTTAAAATGTTTGACCCGGAGTCACCTAGTGCAG", "binding signal": "15800 fluorescence intensity (a.u.)"}
{"sequence": "GCTGCGTTTCGTTTCTCGGTCTCGCGCGCGTGGTGTCACGCGGAGTCACCTAGTGCAG", "binding signal": "9160 fluorescence intensity (a.u.)"}
{"sequence": "GAGGACTGGGGAGGGCGGGGAGAGGGGAGGGCGTCGCGTGCGGAGTCACCTAGTGCAG", "binding signal": "24500 fluorescence intensity (a.u.)"}
{"sequence": "ATTCCTCGTTTTACGCGCGCACACTTTTTAAATTGCTAAACGGAGTCACCTAGTGCAG", "binding signal": "10400 fluorescence intensity (a.u.)"}
{"sequence": "CTCCCTTCCTTATCCGTCCCGTCTCCTCGCGCTGCTAGCACGGAGTCACCTAGTGCAG", "binding signal": "9330 fluorescence intensity (a.u.)"}
{"sequence": "TCTTCTTCTTCCTCGCATCCATAGCTACCGATCAGGGGCACGGAGTCACCTAGTGCAG", "binding signal": "9570 fluorescence intensity (a.u.)"}
{"sequence": "AAACCATCACACTAGTCGTATGATATGACTTTACCCTGCACGGAGTCACCTAGTGCAG", "binding signal": "8410 fluorescence intensity (a.u.)"}
{"sequence": "CTAGTGATGCTTTTTGTTGTTGTTCATTTTGAATATCTGTCGGAGTCACCTAGTGCAG", "binding signal": "10900 fluorescence intensity (a.u.)"}
{"sequence": "GCATAAACTTTCAATTTTCCCGTCACATCGTTCCAATTTCCGGAGTCACCTAGTGCAG", "binding signal": "9070 fluorescence intensity (a.u.)"}
{"sequence": "TAAATCTTCTGTTATAGCTGCTATCTTTCGCTGTTGCTGTCGGAGTCACCTAGTGCAG", "binding signal": "8740 fluorescence intensity (a.u.)"}
{"sequence": "ACCTGTCTCCCTGCTGCTGTTTCTACCATTACTGCATTTTCGGAGTCACCTAGTGCAG", "binding signal": "14200 fluorescence intensity (a.u.)"}
{"sequence": "CCGCCGCCGCCGCTCGCCTCCGCCTCCGCCTCCGTCCCCTCGGAGTCACCTAGTGCAG", "binding signal": "8680 fluorescence intensity (a.u.)"}
{"sequence": "CTGCTGCTGGTGCTTAATTTTGCTCGGGTTCGTGGGGTTGCGGAGTCACCTAGTGCAG", "binding signal": "9970 fluorescence intensity (a.u.)"}
{"sequence": "GGGAGGAGGAGGATCGGAGGAGGAGGGGTTTCACGCCATGCGGAGTCACCTAGTGCAG", "binding signal": "11100 fluorescence intensity (a.u.)"}
{"sequence": "CTAATAGCTCACATCGTTTCGCGTATCTTTCCAATCTTCTCGGAGTCACCTAGTGCAG", "binding signal": "8790 fluorescence intensity (a.u.)"}
{"sequence": "ATAAACGTGCATCCCAGCCTCTCTGTTATTATGGCTATTTCGGAGTCACCTAGTGCAG", "binding signal": "8450 fluorescence intensity (a.u.)"}
{"sequence": "ATCCACCCCGCGATCCGTTTTTGCTGTGCCCCACCGCCTCCGGAGTCACCTAGTGCAG", "binding signal": "11400 fluorescence intensity (a.u.)"}
